Source: patent publication US20250161238A1, “NMDAR Antagonists Prevent Ageing and Aging-Associated Conditions and Diseases Through Increasing 20S Proteasome Activity” (priority 2022, published 2025)
Some results were stated once for a whole list of compounds, not compound by compound. For part of these data: At least one compound was matched to its structure with a doubt left.

Key:
NMDA receptor = conditions: channel block; cited from earlier work
proteasome = target: T1, proteasome (Homo sapiens, UniProt P28072+P28074+Q99436); experiment: In-Cell Fluorogenic Proteasome Assay, HepG2; type: cell-based; parameters: endogenous in cells; host or cells: HepG2 (A9), T98G (A10), digitonin/Tween-permeabilised whole cells
T1 sequence (P28074 60-263): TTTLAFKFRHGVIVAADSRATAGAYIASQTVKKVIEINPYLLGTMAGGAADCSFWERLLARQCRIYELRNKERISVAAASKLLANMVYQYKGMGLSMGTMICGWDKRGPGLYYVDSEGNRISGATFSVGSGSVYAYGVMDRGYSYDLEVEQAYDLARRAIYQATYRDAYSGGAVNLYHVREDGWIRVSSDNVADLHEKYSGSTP
T1 sequence (Q99436 44-277): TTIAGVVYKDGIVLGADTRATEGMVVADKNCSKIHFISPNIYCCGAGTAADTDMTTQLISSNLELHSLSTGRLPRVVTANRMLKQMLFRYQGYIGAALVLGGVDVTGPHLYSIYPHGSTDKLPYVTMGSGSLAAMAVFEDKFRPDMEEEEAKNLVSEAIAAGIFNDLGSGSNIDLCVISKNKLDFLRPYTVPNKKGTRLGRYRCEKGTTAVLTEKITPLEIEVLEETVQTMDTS
T1 sequence (P28072 1-239): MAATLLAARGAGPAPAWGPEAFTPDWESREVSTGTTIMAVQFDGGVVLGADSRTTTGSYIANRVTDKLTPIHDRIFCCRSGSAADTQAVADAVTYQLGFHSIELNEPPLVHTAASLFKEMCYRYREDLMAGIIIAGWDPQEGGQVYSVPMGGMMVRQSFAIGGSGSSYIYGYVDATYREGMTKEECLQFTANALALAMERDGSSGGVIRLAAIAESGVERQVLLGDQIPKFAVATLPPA
Protocol: For a 96-well plate format, 8×10^3 cells per well were seeded. 24 hours later medium was changed with NMDAR blocker containing medium. Two hours later 100 μl of 2× flourescence cell buffer: (1 ml 1M tris hcl ph: 7.5, 500 μl 1M KCL, 200 μl […], 200 μl 0.1M MgCL2, 50 μl % 0.2 tween 20, 75 μl digitonin 20 mg/ml in DMSO ChemCruz cat no: sc-280675, 10 μl flourescence substrates including Suc-LLVY-AMC, Z-LLE-AMC, and Ac-RLR-AMC Ac-RLR-AMC, 8.1 ml H2O). After incubation at room temperature for a 5 minutes the flourescence of each sample were measured in a flourescence spectrometer (Biotek instrument-Synergy HT).

| Structure (SMILES) | higher potency for NR1/NR2B versus NR1/NR2A receptors (NMDA receptor) [fold] | duration of effect on proteasome activity (proteasome) [h] |
| --- | --- | --- |
| CN[C@]1(c2ccccc2Cl)CCCCC1=O [(+)ketamine] | > 10 | – |
| CNC1(c2ccccc2Cl)CCCCC1=O (stereo not drawn) [ketamin, 2-(2-chlorophenyl)-2-(methylamino)-cyclohexanone] | – | 4 to 8 |
| CC12CC3CC(C)(C1)CC(N)(C3)C2 [memantine, 3,5-dimethyladamantan-1-amine] | – | 4 to 8 |
